According to PubChem BioAssay AID2685 (National Center for Advancing Translational Sciences (NCATS), 2010):
The list shows a part of the results. The main result of the screen is listed elsewhere. These columns were measured beside it and carry no call. Most of these compounds were active or inconclusive in the main read-out, so they are no random draw. The note in brackets gives the kind of curve behind each potency; many fits are weak.

Assay: qHTS Assay for Lipid Storage Modulators in Drosophila S3 Cells;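 as to cell number change: cells counted by Cell Tracker Red CMTPX staining in the red channel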
Conditions: BODIPY lipid droplet fluorescence, 18-24 h; for cell number change: measured here: cell count max response, cells fed with added oleic acid
How it was run: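 Laser-scanning cytometry quantifies lipid droplet accumulation (500–530 nm total intensity; droplet/cell object ratio) in oleic acid-fed (400 uM added) Drosophila S3 cells treated with a concentration series. 20 uM Triacsin C defined 100% inhibition.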

[1] = measured here: lipid fluorescence (Fed channel) AC50, cells fed with added oleic acid
[2] = measured here: cell number channel AC50, cells fed with added oleic acid

CC(=O)CC(=O)Nc1ccc(C(N)=O)cc1
cell number change: -0.603%
AC50 [1]: 0.00517 µM [falling, full curve, poor fit]

CC(=O)c1sc(NC(=O)C=C(C)C)nc1C
AC50 [1]: 0.58 µM [rising, single point]

Cc1ccc(C2=NOC(C)(c3nnc(-c4ccc(Cl)cc4)o3)C2)cc1 (centres undefined)
cell number change: 12.7%
AC50 [1]: 11.6 µM [rising, single point]

CC1CCCN(C(=O)C(=O)c2cn(CC(=O)N3CCCCCC3)c3ccccc23)C1 (centres undefined)
cell number change: -9.24%
AC50 [1]: 0.0116 µM [falling, full curve, poor fit]

Cc1ccc2[nH]c3c(c2c1)CN(C(=O)CN1CCN(c2ccccn2)CC1)CC3
cell number change: -22.1%

COc1ccccc1-c1nc(SCC(=O)N2CCOCC2)n[nH]1
cell number change: 4.5%

Cc1ccc(/C=C2/NC(=O)N(Cc3ccccc3)C2=O)s1
cell number change: 43.2%
AC50 [2]: 20.6 µM [rising, single point]
AC50 [1]: 29.1 µM [rising, single point]

Nc1cc(N)nc(SCC(=O)NCCC2=CCCCC2)n1
cell number change: -2.88%

O=C(CSc1nncs1)NC1CCCCCCC1
cell number change: 3.11%
AC50 [1]: 29.1 µM [rising, single point]

CC(C)CCN1C(=O)c2ccc(C(=O)Nc3cc(C(=O)O)cc(C(=O)O)c3)cc2C1=O
cell number change: -24.5%

O=C(Nc1ccc2c(c1)CCC2)Nc1ccc(F)cc1F
cell number change: 20.5%
AC50 [1]: 29.1 µM [rising, single point]

COc1cccc2cc(C(=O)N3CCc4ccccc4C3)c(=O)oc12
cell number change: 71.1%
AC50 [2]: 0.92 µM [rising, partial curve, poor fit]

COc1cc(NC(=S)N2CCCCC2C)cc(OC)c1OC (centres undefined)
cell number change: 21.5%
AC50 [2]: 0.651 µM [falling, single point]
AC50 [1]: 0.651 µM [falling, single point]

O=C(NCc1ccccn1)c1ccc2ccccc2n1
cell number change: 3.53%
AC50 [1]: 10.3 µM [rising, partial curve]

Cc1ccc(C(=O)N2CCN(c3ccc(NC(=O)c4cccs4)cc3)CC2)cc1
cell number change: -47.3%
AC50 [2]: 16.4 µM [falling, single point]
AC50 [1]: 13 µM [falling, partial curve, poor fit]

CCCn1c(SCC(=O)NCCc2ccc(Cl)cc2Cl)n[nH]c1=O
AC50 [1]: 0.259 µM [falling, full curve, poor fit]

COc1cc(Cl)c(C)cc1NC(=O)CSC
cell number change: -1.7%
AC50 [2]: 1.16 µM [falling, partial curve, poor fit]
AC50 [1]: 23.1 µM [rising, single point]

CC(C)n1cnnc1SCC(=O)Nc1ccc(N2CCCCC2)cc1
cell number change: 43.6%
AC50 [2]: 1.84 µM [rising, partial curve, poor fit]
AC50 [1]: 11.6 µM [rising, partial curve, poor fit]

CC(=O)Nc1ccc(Nc2cc(C)nc3c(-c4ccc(Cl)cc4)c(C)nn23)cc1
cell number change: -45.1%
AC50 [2]: 18.4 µM [falling, single point]
AC50 [1]: 20.6 µM [falling, single point]

Cc1ccc(NC(=O)NCc2c(C)nn(C)c2C)cc1Cl
AC50 [2]: 0.651 µM [rising, single point]

COC(=O)[C@H](CC(C)C)NC(=O)NC1CCCCC1C (some centres undefined)
AC50 [1]: 0.651 µM [falling, full curve]

CC(=O)Nc1ccc(C(=O)Nc2ccc(S(=O)(=O)NCC3CCCO3)cc2)cc1 (centres undefined)
cell number change: -5.56%

COC(=O)c1cc(Cl)cc2c(C)c(C3(O)CCCCC3)[nH]c12
cell number change: -10.8%
AC50 [1]: 0.58 µM [falling, single point]

COc1cccc(-c2nn(-c3ccccc3)cc2/C=C(\C#N)C(=O)NCCCn2ccnc2)c1
cell number change: 60.1%
AC50 [2]: 8.2 µM [rising, single point]

O=[N+]([O-])c1cc(-c2nnc(N3CCOCC3)c3ccccc23)ccc1N1CCOCC1
cell number change: 18.5%

Cc1ccc(-n2c(N)c(C(=O)NCc3ccco3)sc2=S)cc1
cell number change: 11.6%

COc1ccc(OC)c(CNc2nc3ccccc3n2CCN2CCCCC2)c1
cell number change: 17.8%
AC50 [1]: 8.2 µM [rising, partial curve]

Cc1cccc(NC(=O)COc2ccc(/C=N\n3cnnc3)cc2)c1
AC50 [1]: 1.3 µM [rising, full curve, poor fit]

CCN(c1ccccc1)S(=O)(=O)c1cc(C(=O)NCc2ccco2)ccc1C
cell number change: 0.839%
AC50 [1]: 8.2 µM [falling, partial curve, poor fit]

CCOc1ccc(N=C2NC(=O)S/C2=C\c2ccc(N(C)C)cc2)cc1
cell number change: -13.8%
AC50 [2]: 2.31 µM [falling, partial curve, poor fit]
AC50 [1]: 7.31 µM [falling, partial curve, poor fit]

COc1ccc(CCN(C(=O)C(F)(F)F)C(C(=O)NC2CCCC2)c2cccs2)cc1 (centres undefined)
cell number change: -9.48%

CCCc1nnc(NC(=O)c2ccc([N+](=O)[O-])cc2)s1
cell number change: -48%
AC50 [2]: 8.2 µM [falling, partial curve]
AC50 [1]: 25.9 µM [falling, single point]

CN(C)c1nc(N)nc(CSc2nc3cc(Cl)ccc3o2)n1
cell number change: 60.8%
AC50 [2]: 6.51 µM [rising, full curve]
AC50 [1]: 5.8 µM [rising, full curve]

Cn1c(=O)n(C)c2cc(NC(=O)COc3ccc(F)cc3)ccc21
AC50 [1]: 0.58 µM [falling, single point]

O=C1CCC(C(=O)OCc2cc(Cl)ccc2OC(F)F)N1 (centres undefined)
cell number change: 12.5%
AC50 [1]: 0.00461 µM [rising, full curve, poor fit]

CC1CCCCC1NC(=O)COC(=O)c1c2c(nc3ccccc13)/C(=C/c1ccco1)CC2 (centres undefined)
cell number change: 3.58%
AC50 [1]: 7.31 µM [falling, single point]

CCOc1ccc(C2NC(=O)NC(C)=C2C(=O)OCc2ccccc2)cc1 (centres undefined)
cell number change: 3.28%
AC50 [1]: 16.4 µM [falling, single point]

COc1ccc(OC)c2sc(NC(=O)c3ccc(S(=O)(=O)N(C)C)cc3)nc12
cell number change: -35.3%
AC50 [2]: 23.1 µM [falling, single point]
AC50 [1]: 29.1 µM [falling, single point]

O=C1c2ccccc2C(=O)N1CCc1nc(-c2cccnc2)no1
cell number change: 0.879%
AC50 [1]: 3.26 µM [rising, single point]
